Measurements reported in the supplement of paper PMC11006884.
Only a part is listed here, and it is no random draw.

By UniProt entry, the sequences of proteins in these tests, tags left out. Where a name states a change or a piece, a line headed by the entry shows the natural chain unless it says otherwise.
UniProt Q9H307: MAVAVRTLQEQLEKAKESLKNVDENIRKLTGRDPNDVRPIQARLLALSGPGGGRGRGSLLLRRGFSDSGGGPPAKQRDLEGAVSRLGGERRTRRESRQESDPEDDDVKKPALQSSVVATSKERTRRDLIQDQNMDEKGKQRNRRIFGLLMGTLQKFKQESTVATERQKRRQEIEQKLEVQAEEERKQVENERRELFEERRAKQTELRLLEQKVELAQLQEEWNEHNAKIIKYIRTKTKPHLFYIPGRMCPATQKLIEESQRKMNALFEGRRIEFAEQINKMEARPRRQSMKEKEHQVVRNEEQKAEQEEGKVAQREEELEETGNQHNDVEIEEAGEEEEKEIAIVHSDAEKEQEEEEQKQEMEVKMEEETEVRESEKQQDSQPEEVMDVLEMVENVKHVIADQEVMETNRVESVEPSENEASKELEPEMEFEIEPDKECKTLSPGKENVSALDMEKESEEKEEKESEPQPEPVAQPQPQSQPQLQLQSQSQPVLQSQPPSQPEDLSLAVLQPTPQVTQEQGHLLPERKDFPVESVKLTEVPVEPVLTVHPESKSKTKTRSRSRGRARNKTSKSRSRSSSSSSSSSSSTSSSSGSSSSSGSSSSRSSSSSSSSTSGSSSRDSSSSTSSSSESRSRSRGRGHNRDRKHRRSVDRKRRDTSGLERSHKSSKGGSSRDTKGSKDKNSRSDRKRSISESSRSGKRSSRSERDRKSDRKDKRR
UniProt Q9NRY4: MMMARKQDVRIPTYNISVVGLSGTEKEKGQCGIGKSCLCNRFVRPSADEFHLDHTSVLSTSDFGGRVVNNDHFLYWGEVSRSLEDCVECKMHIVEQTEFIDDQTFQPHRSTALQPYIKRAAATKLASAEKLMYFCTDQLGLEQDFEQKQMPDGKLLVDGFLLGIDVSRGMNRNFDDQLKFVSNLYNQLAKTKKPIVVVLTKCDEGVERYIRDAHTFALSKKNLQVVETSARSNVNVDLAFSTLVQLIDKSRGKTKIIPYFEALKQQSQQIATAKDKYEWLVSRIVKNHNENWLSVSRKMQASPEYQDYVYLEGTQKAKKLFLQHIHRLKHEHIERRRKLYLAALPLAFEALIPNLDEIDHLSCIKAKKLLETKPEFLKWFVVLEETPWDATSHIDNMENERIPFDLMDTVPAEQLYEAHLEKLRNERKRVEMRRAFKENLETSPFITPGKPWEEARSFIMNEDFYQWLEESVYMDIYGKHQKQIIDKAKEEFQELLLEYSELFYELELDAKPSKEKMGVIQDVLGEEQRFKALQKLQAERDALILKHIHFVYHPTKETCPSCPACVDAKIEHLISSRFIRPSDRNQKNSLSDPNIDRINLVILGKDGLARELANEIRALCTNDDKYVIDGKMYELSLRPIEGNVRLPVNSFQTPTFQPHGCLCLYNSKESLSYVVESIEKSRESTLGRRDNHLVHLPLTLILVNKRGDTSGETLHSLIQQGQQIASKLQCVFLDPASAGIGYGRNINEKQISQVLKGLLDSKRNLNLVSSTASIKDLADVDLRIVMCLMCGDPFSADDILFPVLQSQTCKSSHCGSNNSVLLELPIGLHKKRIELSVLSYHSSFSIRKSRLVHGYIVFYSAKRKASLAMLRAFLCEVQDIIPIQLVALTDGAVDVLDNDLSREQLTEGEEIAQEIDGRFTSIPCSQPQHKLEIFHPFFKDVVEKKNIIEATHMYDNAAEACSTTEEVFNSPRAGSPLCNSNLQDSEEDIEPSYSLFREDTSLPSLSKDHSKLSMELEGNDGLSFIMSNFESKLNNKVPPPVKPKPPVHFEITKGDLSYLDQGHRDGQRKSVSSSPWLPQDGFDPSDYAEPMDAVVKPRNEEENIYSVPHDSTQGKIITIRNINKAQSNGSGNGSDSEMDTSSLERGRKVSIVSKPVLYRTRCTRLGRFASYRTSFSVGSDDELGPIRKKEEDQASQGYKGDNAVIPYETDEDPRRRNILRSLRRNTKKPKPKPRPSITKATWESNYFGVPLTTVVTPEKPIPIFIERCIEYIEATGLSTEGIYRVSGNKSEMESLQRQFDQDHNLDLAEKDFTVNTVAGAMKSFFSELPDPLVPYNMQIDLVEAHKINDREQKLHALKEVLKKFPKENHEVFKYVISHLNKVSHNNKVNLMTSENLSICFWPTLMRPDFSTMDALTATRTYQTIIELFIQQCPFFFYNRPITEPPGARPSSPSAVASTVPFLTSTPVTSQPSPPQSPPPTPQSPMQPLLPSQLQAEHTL
UniProt Q9NTJ3, whole entry, looked up: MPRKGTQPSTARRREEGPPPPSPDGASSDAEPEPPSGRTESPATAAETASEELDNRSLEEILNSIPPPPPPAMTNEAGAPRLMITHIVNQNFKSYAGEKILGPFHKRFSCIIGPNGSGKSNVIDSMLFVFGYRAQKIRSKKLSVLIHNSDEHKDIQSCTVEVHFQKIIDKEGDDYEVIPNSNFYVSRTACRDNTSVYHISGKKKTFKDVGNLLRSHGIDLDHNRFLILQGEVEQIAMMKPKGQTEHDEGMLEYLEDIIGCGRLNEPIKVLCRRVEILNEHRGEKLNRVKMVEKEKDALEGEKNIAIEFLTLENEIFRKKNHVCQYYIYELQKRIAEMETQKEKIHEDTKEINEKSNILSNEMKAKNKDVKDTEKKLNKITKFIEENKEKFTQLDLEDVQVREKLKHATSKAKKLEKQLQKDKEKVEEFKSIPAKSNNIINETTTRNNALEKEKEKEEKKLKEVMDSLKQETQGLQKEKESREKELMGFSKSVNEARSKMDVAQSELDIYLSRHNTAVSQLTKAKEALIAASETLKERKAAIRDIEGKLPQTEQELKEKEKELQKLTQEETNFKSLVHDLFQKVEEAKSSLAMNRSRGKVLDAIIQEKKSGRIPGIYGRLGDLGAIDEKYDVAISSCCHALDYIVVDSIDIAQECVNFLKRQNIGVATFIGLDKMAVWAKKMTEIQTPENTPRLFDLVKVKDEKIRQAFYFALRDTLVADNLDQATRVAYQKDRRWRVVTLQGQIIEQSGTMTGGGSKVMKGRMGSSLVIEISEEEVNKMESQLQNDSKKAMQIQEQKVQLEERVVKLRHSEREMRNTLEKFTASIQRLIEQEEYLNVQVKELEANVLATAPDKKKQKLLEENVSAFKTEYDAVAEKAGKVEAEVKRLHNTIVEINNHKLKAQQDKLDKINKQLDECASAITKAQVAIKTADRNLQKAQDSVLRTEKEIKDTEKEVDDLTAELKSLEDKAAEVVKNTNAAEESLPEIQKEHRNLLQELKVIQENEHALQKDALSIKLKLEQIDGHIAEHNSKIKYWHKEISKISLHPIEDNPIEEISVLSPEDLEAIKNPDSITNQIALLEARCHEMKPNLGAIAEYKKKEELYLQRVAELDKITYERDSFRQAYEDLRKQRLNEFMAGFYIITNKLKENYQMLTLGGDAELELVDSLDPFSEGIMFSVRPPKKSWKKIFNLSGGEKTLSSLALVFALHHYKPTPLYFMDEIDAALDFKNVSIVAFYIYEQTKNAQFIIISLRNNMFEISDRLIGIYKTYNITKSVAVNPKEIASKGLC
UniProt Q9NQ29: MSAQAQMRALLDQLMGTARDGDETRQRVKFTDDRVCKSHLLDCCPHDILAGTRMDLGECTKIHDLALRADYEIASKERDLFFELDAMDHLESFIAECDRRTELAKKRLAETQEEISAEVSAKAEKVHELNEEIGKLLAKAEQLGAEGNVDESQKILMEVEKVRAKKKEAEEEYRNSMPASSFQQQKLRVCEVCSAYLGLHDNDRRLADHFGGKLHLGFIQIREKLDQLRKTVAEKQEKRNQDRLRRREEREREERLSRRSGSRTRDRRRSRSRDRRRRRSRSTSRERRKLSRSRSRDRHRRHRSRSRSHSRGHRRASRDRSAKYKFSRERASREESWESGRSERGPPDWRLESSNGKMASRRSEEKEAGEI
UniProt Q9NP80: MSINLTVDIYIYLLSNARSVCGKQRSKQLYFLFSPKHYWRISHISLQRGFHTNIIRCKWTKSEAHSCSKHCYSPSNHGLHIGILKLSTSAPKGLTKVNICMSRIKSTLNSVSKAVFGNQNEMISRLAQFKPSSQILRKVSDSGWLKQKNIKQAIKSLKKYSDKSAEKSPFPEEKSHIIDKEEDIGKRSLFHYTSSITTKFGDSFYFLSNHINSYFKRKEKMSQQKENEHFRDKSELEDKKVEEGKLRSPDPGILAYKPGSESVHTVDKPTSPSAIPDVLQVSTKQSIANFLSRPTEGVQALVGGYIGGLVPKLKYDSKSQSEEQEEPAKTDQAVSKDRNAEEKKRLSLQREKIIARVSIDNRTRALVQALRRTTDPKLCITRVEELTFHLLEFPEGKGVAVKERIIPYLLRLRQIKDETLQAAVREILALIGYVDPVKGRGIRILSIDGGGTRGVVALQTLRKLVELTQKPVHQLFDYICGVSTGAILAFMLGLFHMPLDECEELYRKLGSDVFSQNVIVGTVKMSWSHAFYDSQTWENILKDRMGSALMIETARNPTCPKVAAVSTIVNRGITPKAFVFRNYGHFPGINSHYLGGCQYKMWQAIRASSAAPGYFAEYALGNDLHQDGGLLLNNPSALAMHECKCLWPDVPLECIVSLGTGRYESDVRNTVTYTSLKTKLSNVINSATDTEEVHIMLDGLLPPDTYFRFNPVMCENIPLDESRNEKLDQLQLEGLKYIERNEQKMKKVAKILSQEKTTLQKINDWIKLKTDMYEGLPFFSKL
UniProt Q9NRG9: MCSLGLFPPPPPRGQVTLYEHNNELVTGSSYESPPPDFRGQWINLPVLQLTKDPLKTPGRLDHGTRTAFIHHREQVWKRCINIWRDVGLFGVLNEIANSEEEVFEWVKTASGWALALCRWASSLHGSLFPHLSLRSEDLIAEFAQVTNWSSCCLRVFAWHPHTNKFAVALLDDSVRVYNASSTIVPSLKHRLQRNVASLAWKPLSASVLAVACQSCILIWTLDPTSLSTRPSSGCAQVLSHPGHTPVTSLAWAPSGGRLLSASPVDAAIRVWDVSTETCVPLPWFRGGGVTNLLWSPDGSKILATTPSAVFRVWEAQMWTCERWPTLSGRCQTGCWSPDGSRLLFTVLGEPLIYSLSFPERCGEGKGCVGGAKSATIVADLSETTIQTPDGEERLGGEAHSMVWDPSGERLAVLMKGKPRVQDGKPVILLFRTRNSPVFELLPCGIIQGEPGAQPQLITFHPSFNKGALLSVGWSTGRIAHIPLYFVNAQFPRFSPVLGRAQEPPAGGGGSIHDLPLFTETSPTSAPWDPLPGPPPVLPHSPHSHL
UniProt Q9H6U6: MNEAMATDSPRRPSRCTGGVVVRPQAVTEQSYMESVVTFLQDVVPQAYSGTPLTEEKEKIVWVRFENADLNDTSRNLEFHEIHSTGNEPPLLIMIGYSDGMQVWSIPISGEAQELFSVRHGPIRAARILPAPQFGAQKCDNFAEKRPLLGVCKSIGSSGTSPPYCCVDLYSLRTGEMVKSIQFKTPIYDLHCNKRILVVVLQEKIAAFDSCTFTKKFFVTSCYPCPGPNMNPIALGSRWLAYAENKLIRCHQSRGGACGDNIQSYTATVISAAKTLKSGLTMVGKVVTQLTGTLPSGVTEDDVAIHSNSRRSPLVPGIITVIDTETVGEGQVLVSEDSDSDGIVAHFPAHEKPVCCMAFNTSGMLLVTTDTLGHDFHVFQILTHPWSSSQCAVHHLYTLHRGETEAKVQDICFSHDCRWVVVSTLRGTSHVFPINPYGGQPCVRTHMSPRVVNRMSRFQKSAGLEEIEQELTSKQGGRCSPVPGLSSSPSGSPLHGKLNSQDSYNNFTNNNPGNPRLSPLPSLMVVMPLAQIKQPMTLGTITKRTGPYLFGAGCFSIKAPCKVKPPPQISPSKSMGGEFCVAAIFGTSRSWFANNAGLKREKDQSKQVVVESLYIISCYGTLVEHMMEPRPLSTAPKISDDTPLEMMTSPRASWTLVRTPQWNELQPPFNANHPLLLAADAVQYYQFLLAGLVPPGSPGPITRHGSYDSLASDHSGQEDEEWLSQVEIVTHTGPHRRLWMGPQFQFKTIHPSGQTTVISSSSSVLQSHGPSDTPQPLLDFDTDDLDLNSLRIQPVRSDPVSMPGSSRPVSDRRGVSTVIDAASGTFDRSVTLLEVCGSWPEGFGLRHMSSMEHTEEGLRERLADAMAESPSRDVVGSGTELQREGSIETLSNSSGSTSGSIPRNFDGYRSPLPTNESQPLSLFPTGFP
UniProt Q9H9V9: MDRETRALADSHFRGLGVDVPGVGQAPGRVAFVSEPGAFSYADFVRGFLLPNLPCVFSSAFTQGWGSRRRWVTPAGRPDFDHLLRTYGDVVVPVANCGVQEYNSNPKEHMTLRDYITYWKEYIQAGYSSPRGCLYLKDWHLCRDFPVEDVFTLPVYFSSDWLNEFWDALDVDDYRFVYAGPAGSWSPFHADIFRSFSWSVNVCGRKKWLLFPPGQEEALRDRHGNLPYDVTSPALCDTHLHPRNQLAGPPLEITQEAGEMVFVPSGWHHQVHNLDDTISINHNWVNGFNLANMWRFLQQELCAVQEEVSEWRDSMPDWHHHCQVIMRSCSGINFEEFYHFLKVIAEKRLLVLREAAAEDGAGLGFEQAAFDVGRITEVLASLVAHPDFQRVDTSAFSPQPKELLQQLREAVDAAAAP

Compound: COC(=O)C#Cc1ccccc1 [methyl 3-phenylpropiolate]
Experiment: log2 ratio of iodoacetamide-alkyne labeling of the cysteine site, DMSO over compound (competition); higher = stronger covalent engagement of the cysteine by the compound, active = 1 or more
Conditions: 500 µM; treatment time 1 h; system: HEK293T cell lysate
Procedure, shortened: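 HEK293T lysate at 2 mg/mL was treated with vehicle or electrophile (500 µM) for 1 h at ambient temperature, then labelled with iodoacetamide alkyne (1 h), clicked to sCIP-TMT reagents, pooled, digested with trypsin overnight at 37 °C, enriched on streptavidin and eluted with acid. Peptides were analysed by Orbitrap Eclipse LC-MS/MS with FAIMS and quantified in FragPipe, using duplicate channels and three replicates, with cysteines quantified in only one replicate excluded. The log2 competition ratio for each cysteine is the mean control-channel reporter intensity divided by the mean compound-channel reporter intensity.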

log2 ratio of iodoacetamide-alkyne labeling, inactive:
BICC1 C621 (UniProt Q9H694) 0.525, DDX21 C161 (UniProt Q9NR30) 0.101, DCP1A C149 (UniProt Q9NPI6) -0.171, PNN C439 (UniProt Q9H307) 0.082, SNX15 C192 (UniProt Q9NRS6) -0.395, UniProt Q9NRY4_C730 0.388, SMC4 C110 (UniProt Q9NTJ3) 0.456, ATG3 C182 (UniProt Q9NT62) 0.632, LUC7L C97 (UniProt Q9NQ29) 0.36, GPHN C419 (UniProt Q9NQX3) 0.38, CNOT10 C633 (UniProt Q9H9A5) 0.175, ATG3 C50 (UniProt Q9NT62) -0.109, UNC45A C420 (UniProt Q9H3U1) 0.56, MRPL47 C87 (UniProt Q9HD33) -0.039, RAVER2 C362 (UniProt Q9HCJ3) 0.837, UniProt Q9NPA3_C62 0.293, LUC7L C44 (UniProt Q9NQ29) 0.236, FKRP C296 (UniProt Q9H9S5) 0.158, NANS C8 (UniProt Q9NR45) 0.0794, MRPL44 C53 (UniProt Q9H9J2) -0.0312, GPHN C284 (UniProt Q9NQX3) 0.457, BIRC6 C3404 (UniProt Q9NR09) 0.493, PNPLA8 C714 (UniProt Q9NP80) 0.283, ZDBF2 C628 (UniProt Q9HCK1) 0.47, YTHDC2 C1211 (UniProt Q9H6S0) 0.279, UniProt Q9H974_C324 0.619, AAAS C279 (UniProt Q9NRG9) 0.178, BAZ1A C547 (UniProt Q9NRL2) 0.396, XPO5 C706 (UniProt Q9HAV4) 0.381, BCAS3 C836 (UniProt Q9H6U6) 0.157, CARS2 C526 (UniProt Q9HA77) 0.206, SMARCAD1 C106 (UniProt Q9H4L7) 0.439, UniProt Q9H6R7_C507 0.708, XAB2 C225 (UniProt Q9HCS7) 0.447, BIRC6 C381 (UniProt Q9NR09) 0.225, JMJD4 C101 (UniProt Q9H9V9) 0.898, STRN4 C580 (UniProt Q9NRL3) 0.138
